# According to publication PMC8113555:
# These are yes or no findings as the source states them, for the method shown. A result given as binding can be weak or reduced; the word gives no strength. For part of these data: Tags and fused reporters may be left off the sequences shown. For part of these data: Binding seen in cells or lysates may run through a third protein.
# How the values were obtained:
# [1] = biological target: TEBP-2::GFP (Telomere-Binding Protein-2, T12E12.3) (C. elegans) (UniProt Q22429); assay: co-IP; GFP-trap IP of TEBP-2::GFP from embryo and young adult extracts of strains with one or both endogenous tags, western blot for FLAG; also in pot-1 mutants (Supplementary Fig. 6h)
# [2] = biological target: T1, POT-1 full length, Gal4 fusion (C. elegans) (UniProt P42001); assay: two-hybrid; yeast strain PJ69-4α, Gal4 activation and DNA-binding domain plasmid pairs co-transformed; growth on SC Trp-Leu-His- and SC Trp-Leu-His-Ade- plates
# T1 sequence: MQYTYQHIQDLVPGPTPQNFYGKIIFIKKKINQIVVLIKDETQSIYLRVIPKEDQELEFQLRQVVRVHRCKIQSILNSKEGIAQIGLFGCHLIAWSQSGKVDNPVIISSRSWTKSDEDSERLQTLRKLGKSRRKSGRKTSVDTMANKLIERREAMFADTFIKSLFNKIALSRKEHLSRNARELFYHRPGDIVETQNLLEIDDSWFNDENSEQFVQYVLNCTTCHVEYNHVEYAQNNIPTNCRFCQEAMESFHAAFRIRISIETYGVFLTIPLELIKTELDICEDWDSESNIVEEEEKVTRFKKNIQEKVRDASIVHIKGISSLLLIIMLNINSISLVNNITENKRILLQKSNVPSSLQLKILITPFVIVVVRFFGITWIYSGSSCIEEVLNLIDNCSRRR
# [3] = biological target: TEBP-1::3xFLAG (Telomere-Binding Protein-1, R06A4.2) (C. elegans) (UniProt O62329); assay: co-IP; reciprocal IP of TEBP-1::3xFLAG (anti-FLAG M2, Protein G beads) from C. elegans extracts, western blot for GFP
substance,measurement,setting,value
"TEBP-1::3xFLAG (Telomere-Binding Protein-1, R06A4.2) (from UniProt O62329)",binding,[1],binds
"TEBP-2 full length, Gal4 fusion (C. elegans)",binding,[2],binds
"TEBP-2::GFP (Telomere-Binding Protein-2, T12E12.3) (from UniProt Q22429)",binding,[3],binds
